Test results reported in patent publication US20050031717A1, “Salt taste modification” (priority 2003, published 2005).
For at least one compound, name, drawing or mass did not settle the structure.

Test system: polarized rat fungiform taste receptor cells
Assay: [Na+]i measurement (Na-green F490) in polarized taste receptor cells, unilateral apical Na+ flux
Assay type: cell-based
Conditions: 5 mM Bz
From the text: [Na^+]i measurement in polarized taste receptor cells. A small piece of the anterior lingual epithelium containing a single fungiform papilla was mounted in a special microscopy chamber (Lyall et al., 2002, supra). Relative changes in intracellular sodium activity ([Na^+]i) were monitored in polarized taste receptor cells with the sodium sensitive fluoroprobe sodium-green. The taste receptor cells in the taste bud were visualized from the basolateral side through a 40× objective using a fluorescence microscope.

NC(=NCc1ccccc1)NC(=O)c1nc(Cl)c(N)nc1N [Bz, benzamil]
increase in F490 on change of apical Na+ from 0 to 150 mM relative to zero Bz: significantly smaller increase
